2 sequences from PMC10015339 can be followed below.

The exact form of at least one protein or probe is not confirmed. For part of these data: A negative result means that nothing was seen under these conditions.

Series [1] relates to GST. The series is described as follows: EMSA. The note with it: GST-only control; LightShift chemiluminescent EMSA kit; 6% polyacrylamide gel; pH and temperature not given (refers to ref. 37); recombinant protein; label: biotin. On the technique in general: A gel shift assay detects complexes by their altered migration in electrophoresis.
The test system of series [2] is GST-SlMYB72. The series is described as follows: EMSA. The note with it: LightShift chemiluminescent EMSA kit; 6% polyacrylamide gel; pH and temperature not given (refers to ref. 37); recombinant protein; protein details: GST (N-terminal, pGEX-4T-1); label: biotin.
The test system of series [3] is GST-SlMYB72. Description: competition with a labelled probe. The note with it: unlabeled competitor abolished the shift of biotin-labeled N1; LightShift chemiluminescent EMSA kit; 6% polyacrylamide gel; pH and temperature not given (refers to ref. 37); recombinant protein; protein details: GST (N-terminal, pGEX-4T-1).

Regarding “CATGGATAAAACTCGACCAACAAAATCTTGAGCTTA (double strand) [SlATG7 probe (AC-rich motif)]”, the figures for the binding result in series [1] and in series [2] were “no binding” and “binds”, respectively.

As for “CATGGATAAAACTCGACCAACAAAATCTTGAGCTTA (double strand) [SlATG7 probe, unlabeled competitor]”, the binding result in series [3] is listed as “binds”.
